Test results published in the supplement of paper PMC3334620.
Whole data set: some 33,000 sequences, median “E-score (-0.5 to 0.5)” near -0.0034, cut for the highest 2% near 0.25. Some of the results follow.

biological target: T1, Yap3 (UniProt P38749); experiment: PBM E-score (8-mer binding enrichment) (E-score (-0.5 to 0.5)); higher = stronger / more preferred TF binding; conditions: protein concentration: 100 nM; construct: GST-full length
T1 sequence: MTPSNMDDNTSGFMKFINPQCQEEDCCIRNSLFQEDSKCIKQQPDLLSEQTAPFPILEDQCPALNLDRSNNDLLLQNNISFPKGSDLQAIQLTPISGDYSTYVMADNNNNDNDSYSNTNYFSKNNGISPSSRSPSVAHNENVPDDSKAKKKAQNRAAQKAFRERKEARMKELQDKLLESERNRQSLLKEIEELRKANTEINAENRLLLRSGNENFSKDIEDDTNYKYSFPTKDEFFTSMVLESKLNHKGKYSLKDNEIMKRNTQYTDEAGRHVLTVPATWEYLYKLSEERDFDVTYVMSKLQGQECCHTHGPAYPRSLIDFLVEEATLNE
Procedure, shortened: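 Each ungapped eight-base word and its reverse complement, pooled, received an E-score from the Universal PBM Analysis Suite. Underlying scans, normalised with masliner, recorded fluorescent anti-GST bound to GST-tagged yeast transcription factors. These were applied at about 100-200 nM to universal all-10-mer Agilent arrays double-stranded by primer extension.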

Sequence | PBM E-score
GGCATGCA | -0.0341
GTTTACAA | 0.148
CTCATTAC | 0.224
TCCGCCAA | -0.168
ACGGCCTC | -0.114
ACTTGCTG | -0.0566
GGCTCGTA | 0.0879
ACATCTTG | -0.0704
AGATATTC | 0.162
AATAAACG | 0.193
CAGAGTGC | -0.0777
AGCCTCTA | -0.2
CCCACCCC | 0.0709
CGAATGCA | 0.0281
AACAGGGA | -0.0243
AGGCCAAG | -0.226
CATGTGTA | 0.0375
AGGAGCAC | -0.0593
CAGCACCG | -0.178
AAGGGATC | -0.103
ATCCCGTA | 0.122
CGGAGATA | 0.0542
AGGAGCTA | -0.183
AGTCCAGA | -0.104
CGTCTCCA | 0.0909

Sequence | PBM E-score
ATCGGGAC | -0.205
ACAAATAC | 0.293
CTACCCTA | -0.0536
TACTACGA | 0.143
TAACCCGA | -0.0757
CCAGACAA | -0.147
TAGGGTGA | 0.106
TCCTCTAA | -0.00323
GGTCACAC | -0.263
ACGACTTA | -0.134
GACTGCAC | -0.119
CTGAAGAC | -0.101
CCGAGTAA | -0.0172
ACGAAATC | 0.185
AGTCGAAC | 0.0695
GAACATGC | -0.0813
ATCAGCAC | 0.0374
AATTCAAT | 0.11
CAATCGCC | 0.108
AGCGATCG | 0.193
CCCTCACC | -0.206
CGCAAATA | 0.0715
GGGCGTCA | -0.044
GCCGCCAA | -0.144
GATTTCAC | 0.0394

Sequence | PBM E-score
GCTTTAAA | 0.0131
AAGAGGGG | -0.144
CCGCGTCG | -0.0382
ACGCAGGA | -0.0758
ATACATAT | 0.286
AATGTAAG | 0.307
GATAATAC | 0.182
AGCGCTGC | -0.0724
ATAACATG | 0.113
CAACACAA | 0.19
ACCCAATA | -0.0657
AACCGGAA | 0.146
CCGACGCA | -0.138
ACGCCCTG | -0.0413
CATGCGCA | 0.0286
GCGCGGCC | -0.0647
AATGGGCT | -0.13
TGGGGTAA | 0.0902
GGGGAACA | -0.09
CGCTTCAC | -0.0891
AGAGTAGG | 0.0861
ACTCTTGC | 0.00857
ATACCCGA | -0.0505
AGCAGAGG | -0.0701
ACGTTCTC | 0.0645

Sequence | PBM E-score
CTCCCGCC | -0.102
GAATTGTC | -0.034
CGACCCAA | 0.00464
ATCTGAGG | 0.0592
TTATTCAA | 0.0561
AGGGGCGA | -0.0939
CAGAGCGA | -0.0428
GTGGTTTA | 0.14
GCGCGCCA | 0.11
ACATCTAA | 0.0483
CCTCGCAA | -0.0826
AACCCTCG | -0.117
GCATACGC | -0.134
ATGATAGG | 0.0502
AGTCAAAT | 0.148
AGGGTCCA | -0.282
AGCAGTAA | 0.0681
CCCGTAAC | 0.00568
TGAGGCAA | 0.0933
AGGAAACG | 0.157
ACGGTCAG | -0.149
ACTCTATG | -0.122
CTCCGGAG | -0.138
CAACAAAA | 0.197
CACCCTTC | -0.13

Sequence | PBM E-score
TTACATAA | 0.416
TCCGCGGA | -0.109
ACATTGAG | 0.0744
GACTTAGA | -0.148
TCCAGAAA | 0.101
CAGTTACG | 0.0281
CTAAGTGA | 0.0311
ATGCTATC | -0.044
ACTGTGAA | 0.0362
ACTCGATC | 0.0389
CACTTGCA | 0.115
CAAGGCGA | -0.168
GGTGAGAA | 0.0668
CAGATGAA | 0.0998
AACAGCCG | -0.147
GACGACAC | 0.0496
ACCGGCAA | -0.091
AGTTTACC | -0.0608
ACAGCATA | 0.0839
CGGAGTGA | -0.0448
AGCCAGCG | -0.115
ACTCTCCT | -0.159
CCTAGGCC | -0.165
AGATTCAG | -0.112
CAAAGGGG | -0.055

Sequence | PBM E-score
GCCGACGC | -0.0231
CAAAGATC | -0.0566
AATGTCAG | 0.0292
ACTCTCTA | 0.0284
CAAACAAG | 0.129
GCATCTCA | 0.0566
ATGCATCA | 0.227
AAACGCCC | -0.0565
CACAACTC | 0.127
ATACAAGG | 0.145
GCAGCGCA | -0.294
CTTTATCA | 0.126
CGCTACAC | -0.0665
AGCTCACG | -0.0323
ACAAAGCA | 0.175
ACTTAACA | -0.0143
ATCGTAAT | 0.242
AGCTAATG | 0.00146
CCATTCAA | -0.059
CGAGACAA | 0.0269
ATACCTGC | -0.105
AGGGACGG | -0.278
AATGTGTA | 0.116
GGAGACAC | 0.0787
CACTATAC | 0.0594

Quoted from the listing.
Value for AGCTAATG under PBM E-score: 0.00146
Value for CACAACTC under PBM E-score: 0.127
Value for ATCGTAAT under PBM E-score: 0.242
Value for CGCTACAC under PBM E-score: -0.0665
Value for AATGTCAG under PBM E-score: 0.0292

The results go on:

Sequence | PBM E-score
CAGAAGCC | -0.163
TATCGCAA | 0.0834
GAGTGAAC | -0.0276
CGCCGCGC | 0.0129
CCTTGTTC | 0.00595
CACCCAGA | -0.0341
ATAGTGAC | 0.0267
CATTGGCG | -0.203
ACCCAGCA | -0.112
ATCATCTA | 0.0308
ATCCTAAT | 0.0634
ATTCTAGG | -0.0152
CTACAGAC | -0.185
AGGAACAG | -0.0271
GCAGCGAA | -0.0852
GATGTGCA | -0.0409
ATGTTTTC | 0.172
ATCAAATA | 0.241
ATGACGTA | 0.277
ATGGTTGC | -0.112
CAAGAACG | 0.0695
CACCAGCG | -0.138
